Positions of bridges follow the written chain, without caps; N, C: chain ends. Non-standard residues stand in square brackets, D forms with d. *: point of attachment. NMeF = CN[C@@H](Cc1ccccc1)C(=O)O; NMeL = CN[C@@H](CC(C)C)C(=O)O; NMeV = CN[C@H](C(=O)O)C(C)C; NMeA = CN[C@@H](C)C(=O)O; Piperidide = C1CCN(*)CC1; Sar = CNCC(=O)O
Assays:
[1] = general procedure: Fmoc solid-phase peptide synthesis; Fmoc-Asp(O-Trt(2-Cl)-Resin)-MePhe-Ala-pip; DIC/HOAt; settings: whole synthesis
[2] = general procedure: Fmoc solid-phase peptide synthesis; 2-Chlorotrityl resin; DIC/HOAt; settings: whole synthesis, scale of the general procedure 250 to 300 mg resin per column
[3] = general procedure: Fmoc solid-phase peptide synthesis; Sieber Amide Resin; DIC/HOAt; settings: whole synthesis; for isolated yield: scale of the general procedure 250 to 300 mg resin per column
[4] = general procedure: Fmoc solid-phase peptide synthesis; Sieber Amide resin; DIC/HOAt; settings: whole synthesis
[5] = general procedure: Fmoc solid-phase peptide synthesis; 2-Chlorotrityl resin (Fmoc-Asp-OBn); DIC/HOAt; settings: whole synthesis, scale 1.36 mmol

Substance: A[NMeL][NMeA]T[Sar][NMeV]AF[NMeL]LD[NMeF]A-Piperidide (lactam N-11; SMILES CC(C)C[C@@H]1NC(=O)[C@H](CC(C)C)N(C)C(=O)[C@H](Cc2ccccc2)NC(=O)[C@H](C)NC(=O)[C@H](C(C)C)N(C)C(=O)CN(C)C(=O)[C@H]([C@@H](C)O)NC(=O)[C@H](C)N(C)C(=O)[C@H](CC(C)C)N(C)C(=O)[C@H](C)NC(=O)C[C@@H](C(=O)N(C)[C@@H](Cc2ccccc2)C(=O)N[C@@H](C)C(=O)N2CCCCC2)NC1=O)
- isolated mass [1]: 4.27 mg
- isolated yield [2]: 5%

Substance: Acbz-Cys(StBu)-Gly-Lys(Me2)-Trp-Cys(StBu)-Pro-Lac-Lys(Acbz-Thz)-Asp-Pro-NH2
- isolated mass ([3]; scale 160 mg resin per column): 184.6 mg
- isolated yield [3]: 24%

Substance: Acbz-Cys(StBu)-Gly-Lys(Me2)-Trp-Cys(StBu)-Pro-^HOGly-Lys(Acbz)-Asp-Pro-NH2
- isolated mass [4]: 360 mg
- isolated yield ([4]; scale of the general procedure 250 to 300 mg resin per column): 39%

Substance: Acbz-Cys(StBu)-Lys(Me2)-Trp-^HOGly-Pro-Lys(Acbz-Thz)-Asp-Pro-NH2
- isolated mass [3]: 179 mg
- isolated yield [3]: 13%

Substance: H-Cys(CH2CONH2)-Thr(tBu)-Thr(tBu)-Thr(tBu)-Arg(Pbf)-Asp-OBn
- isolated mass [5]: 180 mg
- isolated yield [5]: 10%
